Values quoted from earlier work, collected in patent US8252047B2, “Drug-delivery endovascular stent and method for treating restenosis” (Biosensors International Group, Ltd., priority 2004, dated 2012).
For at least one compound, name, drawing or mass did not settle the structure.

Key:
[1] = tested on: intimal hyperplasia; conditions: after balloon angioplasty-induced vascular injury; cited from earlier work
[2] = tested on: smooth muscle cells; conditions: in vitro; cited from earlier work

SMILES: CCc1ccc(CCOc2ccc(CC3SC(=O)NC3=O)cc2)nc1 (centres unmarked) [pioglitazone]
- intimal hyperplasia [1]: reduce intimal hyperplasia
- growth factor-induced proliferation of smooth muscle cells [2]: inhibits
